Measurements from publication doi:10.1101/2025.08.20.671056.
No constants are given. Whether binding was seen depends on the method and setting. Binding seen in cells or lysates may run through a third protein. Some results given as binding are weak or reduced against the parent protein; the word gives no strength.

By UniProt entry, the sequences of proteins in these tests, tags left out. Where a name states a change or a piece, a line headed by the entry shows the natural chain unless it says otherwise.
UniProt P28741: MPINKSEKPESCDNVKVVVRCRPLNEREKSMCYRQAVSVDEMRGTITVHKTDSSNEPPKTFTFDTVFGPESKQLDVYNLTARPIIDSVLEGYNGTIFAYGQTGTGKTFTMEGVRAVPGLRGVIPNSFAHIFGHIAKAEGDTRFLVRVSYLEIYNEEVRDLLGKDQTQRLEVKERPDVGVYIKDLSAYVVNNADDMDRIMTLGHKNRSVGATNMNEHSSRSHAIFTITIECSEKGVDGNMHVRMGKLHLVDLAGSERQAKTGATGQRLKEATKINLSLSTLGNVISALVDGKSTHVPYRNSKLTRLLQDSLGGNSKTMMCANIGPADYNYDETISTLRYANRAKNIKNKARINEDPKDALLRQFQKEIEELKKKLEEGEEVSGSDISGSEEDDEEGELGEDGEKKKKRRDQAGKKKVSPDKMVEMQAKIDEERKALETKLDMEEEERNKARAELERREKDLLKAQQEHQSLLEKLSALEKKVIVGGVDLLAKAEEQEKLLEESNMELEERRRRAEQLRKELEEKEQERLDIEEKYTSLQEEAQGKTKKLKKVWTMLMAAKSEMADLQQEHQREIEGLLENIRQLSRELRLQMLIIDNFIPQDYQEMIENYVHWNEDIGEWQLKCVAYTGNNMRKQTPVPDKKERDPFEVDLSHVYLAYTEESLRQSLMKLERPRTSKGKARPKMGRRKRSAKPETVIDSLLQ
UniProt P62258: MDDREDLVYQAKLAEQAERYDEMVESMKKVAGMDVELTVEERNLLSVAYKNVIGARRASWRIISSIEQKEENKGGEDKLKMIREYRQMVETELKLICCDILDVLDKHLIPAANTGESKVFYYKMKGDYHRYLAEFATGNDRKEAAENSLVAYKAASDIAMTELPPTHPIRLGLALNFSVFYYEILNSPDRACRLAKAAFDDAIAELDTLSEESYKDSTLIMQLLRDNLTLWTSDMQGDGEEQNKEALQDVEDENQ

Target: T1, KIF3B-S2 (mouse) (UniProt Q61771)
T1 sequence: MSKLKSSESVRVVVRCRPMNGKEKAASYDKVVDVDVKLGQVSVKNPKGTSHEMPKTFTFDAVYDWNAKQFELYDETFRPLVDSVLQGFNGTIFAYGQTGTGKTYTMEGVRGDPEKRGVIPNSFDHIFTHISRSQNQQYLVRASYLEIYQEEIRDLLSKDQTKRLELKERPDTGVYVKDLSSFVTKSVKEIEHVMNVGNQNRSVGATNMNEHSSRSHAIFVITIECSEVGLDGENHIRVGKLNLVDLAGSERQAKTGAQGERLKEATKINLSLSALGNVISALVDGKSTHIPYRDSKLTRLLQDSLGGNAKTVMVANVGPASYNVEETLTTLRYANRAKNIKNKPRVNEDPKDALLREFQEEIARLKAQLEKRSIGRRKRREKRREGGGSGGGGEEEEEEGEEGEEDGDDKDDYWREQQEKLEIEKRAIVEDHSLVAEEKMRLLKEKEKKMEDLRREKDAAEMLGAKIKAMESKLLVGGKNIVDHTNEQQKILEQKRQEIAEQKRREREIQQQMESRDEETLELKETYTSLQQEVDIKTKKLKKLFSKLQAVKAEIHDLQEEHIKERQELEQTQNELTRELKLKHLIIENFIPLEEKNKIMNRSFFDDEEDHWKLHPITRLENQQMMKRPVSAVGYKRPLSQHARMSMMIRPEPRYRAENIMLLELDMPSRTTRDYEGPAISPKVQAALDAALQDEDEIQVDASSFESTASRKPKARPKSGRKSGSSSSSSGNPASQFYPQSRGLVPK
Experiment: split reporter

Row | binding | Substance
1 | binds | KIF3A-S1 (from UniProt P28741 1-701)
2 | binds | 14-3-3ε-S1 (from UniProt P62258 1-255)
3 | no binding | 14-3-3ε(K50E)-S1 (from UniProt P62258 1-255)
